In all, about 320,000 compounds went through this assay and about 2,100 (0.66%) were called active. This list was built around the results that the source calls inconclusive (neither active nor inactive); the mix of calls is not that of the screen. Calls come from the whole dose curve; as a rule, active = well fitted inhibition curve with a large enough effect in the signal ratio, with a control signal flat (not every such curve was filed as active); inconclusive = small, poorly fitted or top-dose-only effect, or effect the other way, or a change in a side signal; inactive = flat fitted curve, though single readings scatter; the % refers to the signal ratio. Potencies of inconclusive entries are doubtful fits and often do not repeat.
Assay: qHTS Assay for Lipid Storage Modulators in Drosophila S3 Cells
Conditions: BODIPY lipid droplet fluorescence, 18-24 h, cells fed with added oleic acid; lipid storage change, negative = inhibition: at 46.1 µM (top of the series) unless noted
Summary of the method: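 Drosophila S3 cells got compounds at several concentrations plus oleic acid (400 uM solution). Laser-scanning cytometry with 488 nm excitation read lipid droplets at 500-530 nm and cells at 575-640 nm. Percent activity was relative to 20 uM Triacsin C.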
% is set by controls: 0 for no effect and ±100 for the full control effect; potency is the fitted concentration of half-maximal effect.

Row | SMILES | lipid storage change, negative = inhibition | Potency
1 | N#Cc1ccc(OCC(=O)NC2=NCCS2)cc1 | inconclusive: 19.1% | 
2 | O=C(COc1ccccc1)Nc1nnc(S(=O)(=O)N2CCCCC2)s1 |  | inconclusive: 29.1 µM [falling, single point]
3 | C(=N/n1c2ccccc2c2ccccc21)/c1ccco1 |  | inconclusive: 29.1 µM [falling, single point]
4 | CN1CCN(CCCCOc2ccc(Br)cc2)CC1 |  | inconclusive: 29.1 µM [rising, single point]
5 | O=C(/C=C/c1ccccc1)NC1CC2CCCC(C1)N2Cc1ccccc1 (stereo not given) | inconclusive: 20.1% | 
6 | O=C(COC(=O)CNC(=O)c1ccccc1F)Nc1ncc(Cl)cc1Cl | inconclusive: 6.31% | 
7 | CN(CC(=O)Nc1cccc(F)c1)C(=O)c1cccnc1Sc1ccccc1Cl | inconclusive | 
8 | COc1cc(C(=O)NCc2nnc(SCC(=O)Nc3cccc(C)c3)o2)cc(OC)c1OC | inconclusive: -14.2% | 
9 | O=C(Nc1ccccc1N1CCOCC1)c1cc(Br)c(Br)s1 | inconclusive: -18.7% | 
10 | O=C(N/N=C/c1ccncc1)c1cc(C2CC2)nc2ccccc12 | inconclusive: -13% | 
11 | O=C(N/C(=C\c1cccnc1)C(=O)N1CCCCC1)c1cccc(Br)c1 |  | inconclusive: 0.13 µM [falling, full curve, poor fit]
12 | CC[N+](C)(CC)CCC[n+]1c(-c2ccccc2)c2cc(N)ccc2c2ccc(N)cc21 | inconclusive: -48.9% | 
13 | CN1CCN(C(=S)Nc2cccc(S(=O)(=O)N(C)C)c2)CC1 | inconclusive: 7.16% | 
14 | O=C(NC1=NCCS1)c1ccc(N2CCCC2=O)cc1 |  | inconclusive: 0.82 µM [falling, full curve]
15 | CC(NC(=O)CNC(=O)c1ccco1)c1ccc(S(N)(=O)=O)cc1 (stereo not given) | inconclusive: 218% | 
16 | CCOC(=O)c1c(S(=O)(=O)NC2CCN(C(=O)OCC)CC2)c(C)n(C)c1C | inconclusive: 12.9% | 
17 | CCOc1ccc(-c2c(C(=O)N/N=C(\C)c3ccncc3)nnn2-c2nonc2N)cc1 | inconclusive: 15.3% | 
18 | Nc1nc(SCc2ccc3c(c2)OCO3)n[nH]1 |  | inconclusive: 1.3 µM [rising, partial curve]
19 | C=CCOc1cccc(C2c3c(oc4ccc(F)cc4c3=O)C(=O)N2CCCN2CCOCC2)c1 (stereo not given) | inconclusive: 1.99% | 
20 | CCCCNCC1C(Oc2ccc(Cl)cc2)C(=O)N1c1ccccc1C (stereo not given) | inactive: -32% | 
21 | CCN(CC(=O)Nc1ccccc1C(F)(F)F)C(=O)COc1cccc2c1OC(C)(C)C2 | inconclusive | 
22 | Nc1c(C(=O)OCC(=O)Nc2ccc(Cl)cc2[N+](=O)[O-])[nH]c(=O)[nH]c1=O | inconclusive: 16% | 
23 | CC1CCN(c2c([N+](=O)[O-])c(=O)oc3ccccc23)CC1 | inconclusive: -47.9% | 
24 | O=C1Nc2c(c(=O)[nH]c(=O)n2-c2ccccc2F)C(C(F)(F)F)(C(F)(F)F)N1 | inactive: -3.91% | 
25 | COc1ccc(C(=O)N/N=c2\oc3ccccc3cc2C(=O)NCc2ccccc2)cc1 | inactive: 12.1% | 

Row | SMILES | lipid storage change, negative = inhibition | Potency
26 | O=C(Nc1cccc(NC(=O)c2ccco2)c1)c1ccc2c(c1)OCO2 | inconclusive: 7.9% | 
27 | Cc1nn(C)c(C)c1Nc1ccc(N2C(=O)C3CC=CCC3C2=O)cc1[N+](=O)[O-] (stereo not given) | inconclusive: 7.18% | 
28 | COc1ccc(S(=O)(=O)NC(CC(C)C)C(=O)NC(C)c2cccs2)cc1 (stereo not given) |  | inconclusive: 18.4 µM [falling, single point]
29 | CC(C)OC1(c2ccccc2)OC(=O)c2ccccc21 (stereo not given) | inconclusive: 25.9% | 
30 | Cc1ccc(S(=O)(=O)NCCC(=O)NCCCSc2ccccc2)cc1 |  | active: 16.4 µM
31 | Cc1ccc(-c2nc(=S)c3c(n2Cc2ccco2)CC(C)(C)OC3)cc1 |  | inconclusive: 5.17 µM [falling, single point]
32 | CC(OC(=O)c1cccnc1Cl)C(=O)Nc1ccc2c(c1)OCCO2 (stereo not given) |  | inconclusive: 0.0046 µM [activator, full curve, poor fit]
33 | O=C(NCc1ccc(F)cc1)C1CCCN(C(=O)NCc2ccccc2)C1 (stereo not given) |  | inconclusive: 29.1 µM [activator, single point]
34 | C/C(=N\NC(=O)c1ccc(Cl)cc1)c1cccnc1 | inconclusive: -21.8% | 
35 | O=C(Nc1ccc(Cl)c(S(=O)(=O)N2CCCC2)c1)c1nn(CCO)c(=O)c2ccccc12 | inconclusive | 
36 | CN1C(=O)N2CN(C3CCCCC3)CN3C(=O)N(C)C1C23 (stereo not given) |  | inconclusive: 5.17 µM [falling, full curve]
37 | C=CCOc1cccc(C(=O)Nc2ncn[nH]2)c1 | inconclusive: 23.1% | 
38 | Nc1nonc1-n1nnc(C(=O)c2ccccc2)c1-c1ccccc1 |  | inconclusive: 29.1 µM [activator, single point]
39 | O=S(=O)(c1ccc(OCc2nc3ccccc3s2)c(Cl)c1)N1CCOCC1 |  | inconclusive: 0.13 µM [activator, full curve, poor fit]
40 | CCc1ccc(/C=N\NC(=O)c2ccc(Br)o2)s1 | inconclusive: -8.69% | 
41 | COC(=O)c1ccc(CC(=O)c2c(C)cc(O)cc2O)o1 | inconclusive: 7.91% | 
42 | CN(CCCC1CCCC1)C(=O)CC1C(=O)NCCN1Cc1ccc(F)cc1 (stereo not given) | inconclusive: 0.276% | 
43 | O=C(CN1CCN(c2ccc(F)cc2)CC1)Nc1ccc(S(=O)(=O)N2CCOCC2)cc1 |  | inconclusive: 4.11 µM [falling, single point]
44 | Cc1ccc(NC(=O)CN2C(=O)S/C(=C\c3ccc(-c4cccc(C(=O)O)c4C)o3)C2=O)cc1 | inconclusive: 53.2% | 
45 | Cc1ccccc1CSCCNS(C)(=O)=O | inconclusive: 0.0231% | 
46 | Cc1cccc2sc(NC(=O)C3c4ccccc4Oc4ccccc43)nc12 |  | inconclusive: 1.46 µM [falling, full curve, poor fit]
47 | CSc1ccccc1C(=O)NC1CCCCCC1 | inconclusive: -81% | 
48 | COc1ccccc1NC(=O)CSc1sc2c(O)cc(=O)[nH]c2c1C#N | inconclusive: 151% | 
49 | O=S(CCc1ccncc1)Cc1ccccc1 (stereo not given) |  | inconclusive: 0.184 µM [falling, full curve, poor fit]
50 | O=C1NC2(CCCCCC2)N=C1c1ccc(F)cc1 | inconclusive: 32.6% | 

Sorted by molecular weight (descending): four of the compounds above.
Row | SMILES | lipid storage change, negative = inhibition | Potency
16 | CCOC(=O)c1c(S(=O)(=O)NC2CCN(C(=O)OCC)CC2)c(C)n(C)c1C | inconclusive: 12.9% | 
41 | COC(=O)c1ccc(CC(=O)c2c(C)cc(O)cc2O)o1 | inconclusive: 7.91% | 
14 | O=C(NC1=NCCS1)c1ccc(N2CCCC2=O)cc1 |  | inconclusive: 0.82 µM [falling, full curve]
29 | CC(C)OC1(c2ccccc2)OC(=O)c2ccccc21 (stereo not given) | inconclusive: 25.9% | 

— PubChem BioAssay AID2685 (National Center for Advancing Translational Sciences (NCATS), 2010)
